PubChem BioAssay AID662 (National Center for Advancing Translational Sciences (NCATS), 2007)
“And” between values parts separate entries of the source, which are not always exact repeats. Equal values may be shown once. Some of the results follow. The main result of the screen is listed elsewhere. These columns were measured beside it and carry no call. Compounds called inactive in the main read-out are mostly missing here. The note in brackets gives the kind of curve behind each potency; many fits are weak.

Test: Cell signaling CRE-BLA (Fsk stim)
Settings: CHO CRE-bla reporter (cAMP response element driving beta-lactamase), forskolin EC10, beta-lactamase ratio; measured here: 460 nm blue channel
Summary of the method: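 Beta-lactamase reporter under a cAMP responsive element in CHO cells; compounds tested in titration series against EC10 NKH 477, 3 h at 37 °C. Read-out: CCF4 FRET ratio 460nm/530nm (excitation 405nm) giving %Activity, fitted to AC50.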

| SMILES | AC50 |
| --- | --- |
| CCc1c(C#N)c(SCc2c(C)noc2C)nc2c1C(=O)CC(C)(C)C2 | 1 µM [rising, partial curve] |
| O=C(Cn1nc(C(F)(F)F)c2c1CCCC2)Nc1ccc2c(c1)OCO2 | 0.01 µM [falling, full curve, poor fit] |
| COc1ccc(-n2c(C)c(C(C)=O)c(C(C)=O)c2C)cc1OC | 10 µM [rising, partial curve] |
| CC(=O)Nc1nc(N2C(=O)c3ccccc3C2=O)n(-c2ccccc2)n1 | 0.501 µM [rising, partial curve, poor fit] |
| C=CCSC1=C(C#N)C(c2ccccc2OCC)CC(=O)N1 (configuration not stated) | 3.98 µM [falling, single point] |
| COc1ccc(NC(=O)CCN2CCCCC2)cc1 | 12.6 µM [falling, single point] |
| CCc1c(C)nc(SCCOc2ccc(OC)cc2)[nH]c1=O | 10 µM [rising, partial curve] |
| COC(=O)C1=CN(C2CC2)C=C(C(=O)OC)C1c1ccccc1OC | 12.6 µM [rising, partial curve] |
| COc1ccccc1-c1nccc(-n2ccnc2)n1 | 3.16 µM [rising, single point] |
| CNC(=O)CCn1nc(-c2ccc(Cl)cc2)c2ccccc2c1=O | 12.6 µM [rising, single point] |
| COc1cccc(NC(=O)CN(c2cccc(C(F)(F)F)c2)S(C)(=O)=O)c1 | 0.00316 µM [falling, full curve] |
| COc1cc(-c2noc(-c3cccc(Cl)c3)n2)cc(OC)c1OC | 2.51 µM [rising, single point] |
| O=C1CCCc2c1cc(C(=O)Nc1ccc(Cl)cn1)c(=O)n2-c1ccccc1 | 10 µM [rising, single point] |
| Cc1ccc(CN2C(=O)CCC2C(=O)NCc2ccc(F)cc2)cc1 (configuration not stated) | 25.1 µM [rising, single point] |
| CCOCCOC(=O)COc1ccc(N2C(=O)c3ccccc3C2=O)cc1 | 0.501 µM [falling, full curve] |
| Cc1cc(-c2nnc3n2N=C(c2ccc(-c4ccccc4)cc2)CS3)n[nH]1 | 25.1 µM [falling, single point] |
| O=C(c1nn2c(C(F)(F)F)cc(-c3ccc(F)cc3)nc2c1Cl)N1CCOCC1 | 5.01 µM [rising, partial curve] |
| CS(=O)(=O)N1CCN(C(=O)c2csc3ccccc23)CC1 | 10 µM [rising, partial curve] |
| O=C(CN1CCOc2ccccc21)N1CCC(Cc2ccccc2)CC1 | 20 µM [falling, single point] |
| COc1ccc(Nc2nc(N)nc(C(F)(F)F)n2)c(OC)c1 | 10 µM [rising, single point] |
| N#CC(C(=O)NC1CCCCC1)c1nc2ccccc2nc1N1CCN(c2ccc(F)cc2)CC1 (configuration not stated) | 10 µM [rising, partial curve] |
| O=C(OCCOc1ccccc1Cl)c1ccc(-n2cnnn2)cc1 | 25.1 µM [falling, single point] |
| CCCOc1ccc2oc(=O)c3c(c2c1)CCCN3C(=O)CN1CCCC(C(=O)OCC)C1 (configuration not stated) | 7.94 µM [rising, partial curve] |

| SMILES | AC50 |
| --- | --- |
| CCN1C(=O)c2cccc3c(N)ccc1c23 | 12.6 µM [rising, partial curve] |
| CC(=O)NCCn1c(SCC(=O)c2ccccc2)nc2ccccc2c1=O | 10 µM [rising, partial curve] |
| CCC(C)OC(=O)c1[nH]c2c(c1C)C(=O)CC(c1ccc(N(C)C)cc1)C2 (configuration not stated) | 2.51 µM [rising, full curve, poor fit] |
| CC(C(=O)O)n1nc2ccccc2n1 (configuration not stated) | 5.01 µM [falling, single point] |
| C[C@H](Cc1ccc(O)c(O)c1)[C@@H](C)Cc1ccc(O)c(O)c1 | 10 µM [falling, partial curve] and 5.01 µM [falling, partial curve] |
| Cc1ccc(NS(=O)(=O)c2ccc(NC(=O)c3ccc(Br)o3)cc2)c(C)c1 | 0.00794 µM [falling, full curve, poor fit] |
| CCN1CC=C2C(C#N)=C(N)C(C#N)(C#N)C(c3cc(Cl)ccc3Cl)C2C1 (configuration not stated) | 5.01 µM [rising, full curve] |
| C=CCn1c(SCC(=O)Nc2sccc2C(N)=O)nc2sc(C)c(C)c2c1=O | 1.58 µM [rising, full curve] |
| Cc1nc(NC2CCCCC2)c2nc(-c3ccccc3)n(CCN3CCCCC3)c2n1 | 12.6 µM [rising, partial curve] |
| N#Cc1nc(-c2ccco2)oc1N1CCN(c2ccccc2)CC1 | 10 µM [rising, single point] |
| CCCOc1nc2c(c(=O)n(C)c(=O)n2C)n1Cc1cccc2ccccc12 | 15.8 µM [rising, single point] |
| CCCC(C)C(=O)Nc1ccc(C(N)=O)cc1 (configuration not stated) | 10 µM [falling, partial curve, poor fit] |
| CCC(=O)Oc1ccc(C/C(=N\O)c2ccc(O)cc2O)o1 | 3.16 µM [falling, full curve] |
| Cn1c(SCC(=O)c2ccccc2)nnc1C1CC1 | 0.2 µM [falling, full curve] |
| COCCCNC(=O)CCc1nc(-c2ccccc2)no1 | 3.16 µM [falling, single point] |
| COC(=O)[C@@]1(Cc2ccc(OC)cc2)[C@H]2c3cc(C(=O)N4CCCC4)n(CCc4ccccn4)c3C[C@H]2CN1C(=O)c1ccccc1 | 0.126 µM [rising, full curve, poor fit] |
| COc1ccccc1N1CCN(C(=O)c2cc3c(-c4ccc(Cl)cc4)nn(C)c3s2)CC1 | 25.1 µM [falling, single point] |
| CC(=O)NCCNc1ncnc2ccc(-c3c(C)noc3C)cc12 | 5.01 µM [rising, full curve] |
| CCc1nnc(SCC(=O)N2CCCc3ccccc32)nc1CC | 0.00398 µM [falling, full curve, poor fit] |
| CCn1c(SCC(=O)N(Cc2ccccc2)C2CCS(=O)(=O)C2)nc2ccccc2c1=O (configuration not stated) | 15.8 µM [rising, single point] |
| Cc1csc(N(C)C(=O)CSc2nnc(COc3ccccc3C)o2)n1 | 0.00398 µM [falling, full curve, poor fit] |
| Cc1ccc2c(c1)[nH]c1c(=O)n(Cc3ccccn3)cnc12 | 12.6 µM [rising, single point] |
| CCN(CC)CCOc1nc(C)nc2c1oc1ccccc12 | 25.1 µM [rising, single point] |

Random excerpt: 4 compounds from above.

| SMILES | AC50 |
| --- | --- |
| CC(=O)NCCn1c(SCC(=O)c2ccccc2)nc2ccccc2c1=O | 10 µM [rising, partial curve] |
| CCC(C)OC(=O)c1[nH]c2c(c1C)C(=O)CC(c1ccc(N(C)C)cc1)C2 (configuration not stated) | 2.51 µM [rising, full curve, poor fit] |
| CC(C(=O)O)n1nc2ccccc2n1 (configuration not stated) | 5.01 µM [falling, single point] |
| COCCCNC(=O)CCc1nc(-c2ccccc2)no1 | 3.16 µM [falling, single point] |

Next compounds follow.

| SMILES | AC50 |
| --- | --- |
| COc1cc(C(=O)Nc2ccc(S(=O)(=O)N3CCCCC3C)cc2)cc(OC)c1OC (configuration not stated) | 10 µM [rising, partial curve] |
| COc1cccc(-c2nnc(SCC(=O)Nc3ccc4c(c3)OCCO4)n2Cc2ccco2)c1 | 3.16 µM [rising, full curve, poor fit] |
| O=C(c1ccccc1)c1ccc(Oc2ncccn2)cc1 | 2 µM [falling, single point] |
| CCn1cc(C(=O)OCc2ccccc2)c(=O)c2ccc(C)nc21 | 10 µM [rising, partial curve] |
| O=C(OCCN1C(=O)c2ccccc2C1=O)c1cc(S(=O)(=O)N2CCOCC2)ccc1Cl | 6.31 µM [rising, partial curve] |
| COc1cccc(Cn2c(=O)c(-c3cccc(C#N)c3)nc3cnc(N4CCN(C)CC4)nc32)c1 | 5.01 µM [rising, partial curve] |
| COc1ccc2c(c1OC)C(=O)N(c1ccccn1)C2 | 25.1 µM [rising, single point] |
| Cn1cccc1Cc1nnc(SCC(=O)Nc2ccc(Cl)cc2)n1-c1ccc(F)cc1 | 12.6 µM [falling, partial curve] |
| Cc1nnc(SCCn2c(Br)nc3c2c(=O)[nH]c(=O)n3C)s1 | 15.8 µM [rising, single point] |
| COc1cccc(N2CCN(C(=O)C3C4C=CC5(CN(Cc6ccccc6Cl)C(=O)C35)O4)CC2)c1 (configuration not stated) | 0.0794 µM [rising, full curve, poor fit] |
| COc1ccc(-c2ccc(-c3noc(C4CCCCC4)n3)c(OC)n2)cc1 | 10 µM [rising, single point] |
| COc1cc(CNc2ccccc2SC)ccc1O | 0.00398 µM [falling, full curve, poor fit] |
| COc1cccc(N2CCN(C(=O)c3[nH]c(C)c(C(C)=O)c3C)CC2)c1 | 3.16 µM [falling, single point] |
| O=C1C(c2ccncc2)=C(O)c2ccccc21 | 6.31 µM [falling, partial curve] |
| O=C(NC1=NCCS1)c1cc2ccccc2o1 | 0.316 µM [rising, full curve] |
| COc1cc(CN2CCC(C(=O)N3CCC(C)CC3)CC2)cc(Br)c1O | 3.16 µM [falling, full curve] |
| O=c1c(-c2ccccc2)nc2cnc(N3CCOCC3)nc2n1Cc1cccs1 | 7.94 µM [rising, partial curve] |
| CN(C)/C=N/c1sccc1C(N)=O | 0.00316 µM [falling, full curve, poor fit] |
| O=C(CSc1nnnn1-c1ccccc1Cl)Nc1ccc2c(c1)OCCO2 | 12.6 µM [falling, single point] |
| CCOCC(O)CS(=O)Cc1ccccc1 (configuration not stated) | 0.398 µM [rising, partial curve] |
| CCOc1ccc(-n2c(SCC(=O)NC(C)CC)nc3n[nH]c(C)c3c2=N)cc1 (configuration not stated) | 12.6 µM [rising, partial curve] |
